Results are given in words; binding and its absence hold for the method and conditions named. In cells and extracts the contact can be indirect. Some binding calls cover weakened binding; strength is not graded here.
How the values were obtained:
EGFP-BSEP (human) = EGFP-BSEP (human) (UniProt O95342); assay: co-IP; Hep G2 cells co-expressing EGFP-BSEP and mCherry-CHMP5 or mCherry, fractionated; immunoprecipitation with anti-EGFP antibodies from the total membrane-protein (tM) fraction; blot for CHMP5
FLAG-BSEP-N490D (human) = FLAG-BSEP-N490D (human) (UniProt O95342); assay: co-IP; Hep G2 cells co-expressing CHMP5-3HA and FLAG-BSEP wild type or mutants, fractionated; immunoprecipitation with anti-FLAG antibodies from the total membrane (tM) fraction; blots for CHMP5-3HA, LIP5 and VPS4
[1] = target: FLAG-BSEP wild type (human) (UniProt O95342); assay: as above
FLAG-BSEP-R487H (human) = FLAG-BSEP-R487H (human) (UniProt O95342); assay: as above
[2] = target: endogenous CHMP5 of human hepatoma cells (human (endogenous in Hep G2, Huh-7, Mahlavu)) (UniProt Q9NZZ3); assay: co-IP; endogenous proteins; immunoprecipitation of CHMP5 from total lysates of Hep G2, Huh-7 and Mahlavu cells, normal mouse IgG as control; blot for BSEP

The chains behind the UniProt entries cited, without tags or fusion partners. Where a name states a change or a piece, a line headed by the entry shows the natural chain unless it says otherwise.
UniProt O95342: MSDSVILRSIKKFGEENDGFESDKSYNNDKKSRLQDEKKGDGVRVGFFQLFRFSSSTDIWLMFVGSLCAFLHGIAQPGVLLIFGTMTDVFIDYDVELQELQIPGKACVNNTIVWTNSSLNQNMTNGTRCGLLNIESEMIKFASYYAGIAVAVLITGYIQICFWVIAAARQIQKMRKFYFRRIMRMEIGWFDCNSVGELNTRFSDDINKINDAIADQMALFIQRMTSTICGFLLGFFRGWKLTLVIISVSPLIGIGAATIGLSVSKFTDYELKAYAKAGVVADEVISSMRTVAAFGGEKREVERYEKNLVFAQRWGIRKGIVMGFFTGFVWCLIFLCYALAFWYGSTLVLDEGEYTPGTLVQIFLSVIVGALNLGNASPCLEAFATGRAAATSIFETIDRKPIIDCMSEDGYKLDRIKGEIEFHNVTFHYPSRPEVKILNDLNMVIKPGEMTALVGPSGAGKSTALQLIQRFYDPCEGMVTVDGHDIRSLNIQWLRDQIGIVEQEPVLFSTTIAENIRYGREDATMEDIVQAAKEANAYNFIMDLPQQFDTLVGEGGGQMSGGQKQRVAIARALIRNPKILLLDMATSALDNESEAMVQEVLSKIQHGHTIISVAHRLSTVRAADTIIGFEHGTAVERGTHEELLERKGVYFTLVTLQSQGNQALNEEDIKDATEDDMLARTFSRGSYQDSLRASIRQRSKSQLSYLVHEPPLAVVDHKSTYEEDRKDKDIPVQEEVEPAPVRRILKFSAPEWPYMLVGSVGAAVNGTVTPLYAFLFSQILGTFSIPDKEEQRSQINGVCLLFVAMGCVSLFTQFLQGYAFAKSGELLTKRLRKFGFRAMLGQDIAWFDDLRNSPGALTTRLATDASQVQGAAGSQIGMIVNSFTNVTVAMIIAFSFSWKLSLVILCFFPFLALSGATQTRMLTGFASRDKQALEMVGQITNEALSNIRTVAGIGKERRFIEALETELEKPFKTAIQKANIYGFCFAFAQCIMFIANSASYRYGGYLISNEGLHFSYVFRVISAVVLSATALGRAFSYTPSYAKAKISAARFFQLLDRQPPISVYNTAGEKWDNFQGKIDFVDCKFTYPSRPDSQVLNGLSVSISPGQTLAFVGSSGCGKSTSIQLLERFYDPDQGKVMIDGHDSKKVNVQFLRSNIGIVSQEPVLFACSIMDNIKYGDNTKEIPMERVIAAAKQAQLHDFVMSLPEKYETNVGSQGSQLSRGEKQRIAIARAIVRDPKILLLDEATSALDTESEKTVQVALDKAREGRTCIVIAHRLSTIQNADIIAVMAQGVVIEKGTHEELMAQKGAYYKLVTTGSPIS
UniProt Q9NZZ3: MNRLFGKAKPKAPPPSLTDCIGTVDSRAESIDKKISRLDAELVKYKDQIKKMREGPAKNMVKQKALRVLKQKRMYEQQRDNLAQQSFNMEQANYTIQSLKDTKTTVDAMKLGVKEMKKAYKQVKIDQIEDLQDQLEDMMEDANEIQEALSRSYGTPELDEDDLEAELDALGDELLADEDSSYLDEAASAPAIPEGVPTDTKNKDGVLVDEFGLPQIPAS

endogenous CHMP5 of human hepatoma cells (from UniProt Q9NZZ3 1-219)
binding (EGFP-BSEP (human)): binds

mCherry-CHMP5 (from UniProt Q9NZZ3-1 1-219)
binding (EGFP-BSEP (human)): binds

CHMP5-3HA (from UniProt Q9NZZ3-1 1-219)
binding (FLAG-BSEP-N490D (human)): binds | binding [1]: binds | binding (FLAG-BSEP-R487H (human)): binds

endogenous BSEP of human hepatoma cells (from UniProt O95342 1-1321)
binding [2]: binds

Reference: PMC7941988
